Experimental data published in publication PMC5914539.
For at least one entry, the source does not settle the construct or the ends of the probe. Where cells or extracts were used, other partners may take part. For some assays here: Negatives hold for the conditions tested. At least one verdict rests on a figure or table, not on a statement of the authors.

Chains of the proteins cited; added tags and fusions are not shown. Lines headed by an entry give the natural chain unless they say otherwise; changes in a name come on top. Residues count along the entry.
UniProt P16422, 24-314: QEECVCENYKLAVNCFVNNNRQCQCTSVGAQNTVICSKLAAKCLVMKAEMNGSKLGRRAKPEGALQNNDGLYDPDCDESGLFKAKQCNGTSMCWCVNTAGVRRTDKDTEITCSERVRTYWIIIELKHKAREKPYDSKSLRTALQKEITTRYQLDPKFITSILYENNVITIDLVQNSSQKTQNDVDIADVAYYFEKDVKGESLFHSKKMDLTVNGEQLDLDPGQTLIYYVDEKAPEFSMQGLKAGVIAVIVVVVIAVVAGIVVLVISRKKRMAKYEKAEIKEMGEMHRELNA
UniProt P15941: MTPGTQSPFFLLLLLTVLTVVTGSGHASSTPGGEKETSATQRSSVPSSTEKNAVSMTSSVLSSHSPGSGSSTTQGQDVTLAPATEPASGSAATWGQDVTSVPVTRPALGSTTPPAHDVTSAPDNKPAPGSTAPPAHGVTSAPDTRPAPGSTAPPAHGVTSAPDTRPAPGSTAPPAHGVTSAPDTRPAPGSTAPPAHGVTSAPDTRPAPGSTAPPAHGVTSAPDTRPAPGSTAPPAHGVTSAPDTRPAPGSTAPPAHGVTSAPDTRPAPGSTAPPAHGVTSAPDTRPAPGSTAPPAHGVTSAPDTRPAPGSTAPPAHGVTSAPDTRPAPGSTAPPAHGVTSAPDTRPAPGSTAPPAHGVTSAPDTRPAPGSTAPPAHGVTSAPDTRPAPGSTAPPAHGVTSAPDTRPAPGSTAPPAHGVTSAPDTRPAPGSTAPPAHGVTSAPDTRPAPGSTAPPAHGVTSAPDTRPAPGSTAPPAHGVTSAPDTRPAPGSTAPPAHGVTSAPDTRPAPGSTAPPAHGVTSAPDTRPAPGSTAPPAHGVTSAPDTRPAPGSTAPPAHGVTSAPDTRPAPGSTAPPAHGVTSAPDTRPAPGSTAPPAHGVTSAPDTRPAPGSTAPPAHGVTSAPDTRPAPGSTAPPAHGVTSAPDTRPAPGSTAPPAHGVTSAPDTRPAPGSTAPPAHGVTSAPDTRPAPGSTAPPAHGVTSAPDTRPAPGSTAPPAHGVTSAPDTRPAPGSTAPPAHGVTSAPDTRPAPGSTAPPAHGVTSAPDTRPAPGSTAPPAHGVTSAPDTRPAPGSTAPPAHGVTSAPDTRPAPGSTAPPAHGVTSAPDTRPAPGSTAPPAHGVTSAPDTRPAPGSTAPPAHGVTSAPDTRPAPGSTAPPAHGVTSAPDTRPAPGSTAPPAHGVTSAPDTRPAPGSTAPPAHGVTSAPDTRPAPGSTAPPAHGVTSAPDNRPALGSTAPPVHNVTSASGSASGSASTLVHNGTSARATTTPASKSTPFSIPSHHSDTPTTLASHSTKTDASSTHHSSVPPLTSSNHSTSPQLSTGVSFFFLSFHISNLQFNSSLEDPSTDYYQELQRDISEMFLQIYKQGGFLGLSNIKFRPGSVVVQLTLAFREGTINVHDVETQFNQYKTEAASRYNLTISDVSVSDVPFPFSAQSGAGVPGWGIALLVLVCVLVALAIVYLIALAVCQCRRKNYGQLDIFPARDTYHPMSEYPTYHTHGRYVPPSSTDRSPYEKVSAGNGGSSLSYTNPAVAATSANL
UniProt P19338, 2-710: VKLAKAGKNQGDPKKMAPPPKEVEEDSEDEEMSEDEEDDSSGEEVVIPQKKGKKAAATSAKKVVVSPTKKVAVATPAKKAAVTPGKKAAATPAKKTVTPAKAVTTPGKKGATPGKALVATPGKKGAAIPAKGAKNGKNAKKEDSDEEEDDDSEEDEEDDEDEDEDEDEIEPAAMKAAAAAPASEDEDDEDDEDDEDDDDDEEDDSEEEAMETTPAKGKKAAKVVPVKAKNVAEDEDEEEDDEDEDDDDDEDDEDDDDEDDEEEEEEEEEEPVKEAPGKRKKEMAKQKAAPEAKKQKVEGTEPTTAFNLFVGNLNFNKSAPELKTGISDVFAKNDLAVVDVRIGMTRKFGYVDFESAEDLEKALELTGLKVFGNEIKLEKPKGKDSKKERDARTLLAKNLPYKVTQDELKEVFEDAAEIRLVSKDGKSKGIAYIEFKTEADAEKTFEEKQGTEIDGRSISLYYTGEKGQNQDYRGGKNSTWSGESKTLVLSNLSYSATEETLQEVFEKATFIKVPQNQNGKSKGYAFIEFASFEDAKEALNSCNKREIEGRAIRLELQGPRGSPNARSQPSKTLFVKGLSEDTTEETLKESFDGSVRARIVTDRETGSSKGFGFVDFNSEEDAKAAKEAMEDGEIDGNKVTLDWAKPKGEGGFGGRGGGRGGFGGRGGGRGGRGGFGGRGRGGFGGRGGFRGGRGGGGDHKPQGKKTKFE

Assays:
[1] = molecular target: epithelial cell adhesion molecule (EpCAM) (human) (UniProt P16422); test: flow cytometry; conditions: 250 nM aptamer, also SERS imaging, Flow cytometry: 250 nM FITC-aptamer, 37 C, 30 min, dPBS washes, protein on the cell surface
mucin 1 (MUC1) (human) [2] = molecular target: mucin 1 (MUC1) (human) (UniProt P15941); test: flow cytometry; conditions: A549 cells, 250 nM aptamer, also SERS imaging, MUC1-low HepG2 not stained; Flow cytometry: 250 nM FITC-aptamer, 37 C, 30 min, dPBS washes; protein on the cell surface; single-stranded DNA
[3] = molecular target: epithelial cell adhesion molecule (EpCAM) (human) (UniProt P16422); test: SERS imaging of cells; conditions: A549 and HepG2 cells, GIAN-lib; 5' thiol linked to DSPE-PEG; SERS imaging: GIAN-aptamer in dPBS, 37 C, 2.5 h; protein on the cell surface; label: GIAN SERS tag; single-stranded DNA
mucin 1 (MUC1) (human) [4] = molecular target: mucin 1 (MUC1) (human) (UniProt P15941); test: SERS imaging of cells; conditions: A549 cells, GIAN-lib; 5' thiol linked to DSPE-PEG; SERS imaging: GIAN-aptamer in dPBS, 37 C, 2.5 h; protein on the cell surface; label: GIAN SERS tag; single-stranded DNA
nucleolin (human) [5] = molecular target: nucleolin (human) (UniProt P19338); test: SERS imaging of cells; conditions: A549 and HepG2 cells, GIAN-lib; 5' thiol linked to DSPE-PEG; SERS imaging: GIAN-aptamer in dPBS, 37 C, 2.5 h; protein on the cell surface; label: GIAN SERS tag; single-stranded DNA
nucleolin (human) [6] = molecular target: nucleolin (human) (UniProt P19338); test: flow cytometry; conditions: 250 nM aptamer, also SERS imaging, Flow cytometry: 250 nM FITC-aptamer, 37 C, 30 min, dPBS washes, protein on the cell surface
[7] = A549 cells, single-stranded DNA

“AAAACACTACAGAGGTTGCGTCTGTCCCACGTTGTCATGGGGGGTTGGCCTG [SYL3C-FITC]”: binds [1, 7]; binds ([1]; HepG2 cells, single-stranded …).
“GGGAGACAAGAATAAACGCTCAAGCAGTTGATCCTTTGGATACCCTGGTTCGACAGGAGGCTCACAACAGGC [S1.6-FITC]”: binds (mucin 1 (MUC1) (human) [2]).
“AAAAAAAAAATTTTTTAATTATTTATATTAAT [HS-Lib (DSPE-PEG-lib)]”: no binding [3]; no binding (mucin 1 (MUC1) (human) [4]); no binding (nucleolin (human) [5]).
“AAAAAAAAGGTGGTGGTGGTTGTGGTGGTGGTGG [AS1411-FITC]”: binds (nucleolin (human) [6]; [7]); binds (nucleolin (human) [6]; HepG2 cells, single-stranded …).
